Laboratory results: article PMC8707461, “In Vitro and In Vivo Inhibition of MATE1 by Tyrosine Kinase Inhibitors” (Pharmaceutics, 2021)

Target: T1, MATE1 (Homo sapiens, UniProt Q96FL8)
T1 sequence (Q96FL8 1-570): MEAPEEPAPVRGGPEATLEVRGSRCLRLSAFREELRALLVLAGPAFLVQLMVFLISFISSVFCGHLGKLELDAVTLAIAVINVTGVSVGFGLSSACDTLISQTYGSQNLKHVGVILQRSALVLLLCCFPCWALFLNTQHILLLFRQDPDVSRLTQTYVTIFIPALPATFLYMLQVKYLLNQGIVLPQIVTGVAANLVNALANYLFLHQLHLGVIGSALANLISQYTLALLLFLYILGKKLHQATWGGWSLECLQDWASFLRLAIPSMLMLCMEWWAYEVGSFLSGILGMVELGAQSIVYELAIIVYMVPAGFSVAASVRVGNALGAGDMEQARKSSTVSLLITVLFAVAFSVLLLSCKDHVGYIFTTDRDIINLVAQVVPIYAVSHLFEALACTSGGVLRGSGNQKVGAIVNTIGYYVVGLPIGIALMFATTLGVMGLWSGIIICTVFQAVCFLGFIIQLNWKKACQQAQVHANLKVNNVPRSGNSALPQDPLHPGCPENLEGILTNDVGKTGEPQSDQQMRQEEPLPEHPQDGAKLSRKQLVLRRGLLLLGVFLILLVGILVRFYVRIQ
Assay: [14C]TEA uptake in HEK293 cells overexpressing human MATE1
Settings: HEK293 cells overexpressing human MATE1, pH 7.4, probe [14C]TEA (tetraethylammonium), 2 µM
Procedure: Uptake experiments in HEK293 cells overexpressing mouse (m) and human (h) OCT2 or MATE1 were performed with radiolabeled tetraethylammonium (TEA) as the model substrate, using standard methods in the presence or absence of TKIs. The cell culture and uptake conditions for cells expressing mMATE1 or hMATE1 were described previously. […] Since the inhibitory potential of various xenobiotics against OCT2 and MATE1 is dependent on preincubation with perpetrator drugs, a 15-min preincubation period with the TKIs was employed unless stated otherwise. All results were normalized to uptake values in cells transfected with an empty vector or DMSO-treated groups.
MATE1-overexpressed cells were pre-incubated with transport media containing 30 mM ammonium chloride for 20 min at 37 °C following previously published protocol (pH 7.4 for hMATE1 [17, 18, 19] and pH 8.4 for mMATE1 [20, 21]) to ensure interactions can be evaluated between outward-facing MATE1 and substrate uptake before adding inhibitors. Then, preincubation media was removed and cells were incubated with transport media (NH4Cl free) containing radiolabeled compounds. […] The uptake of TEA and metformin was measured by liquid scintillation counting, as described previously. […] After sonication, total platinum levels were determined by flameless atomic absorption spectrometry.

COc1cc(OC)cc(N(CCNC(C)C)c2ccc3ncc(-c4cnn(C)c4)nc3c2)c1 [Erdafitinib]
inhibition at 10 µM: 97%
